No constants are given. Whether binding was seen depends on the method and setting. In cells and extracts the contact can be indirect. A result given as binding can be weak or reduced; the word gives no strength.

Protein sequences, listed by entry. Tags and fused reporters are not part of them. Lines headed by an entry give the natural chain unless they say otherwise; changes in a name come on top.
UniProt P78504: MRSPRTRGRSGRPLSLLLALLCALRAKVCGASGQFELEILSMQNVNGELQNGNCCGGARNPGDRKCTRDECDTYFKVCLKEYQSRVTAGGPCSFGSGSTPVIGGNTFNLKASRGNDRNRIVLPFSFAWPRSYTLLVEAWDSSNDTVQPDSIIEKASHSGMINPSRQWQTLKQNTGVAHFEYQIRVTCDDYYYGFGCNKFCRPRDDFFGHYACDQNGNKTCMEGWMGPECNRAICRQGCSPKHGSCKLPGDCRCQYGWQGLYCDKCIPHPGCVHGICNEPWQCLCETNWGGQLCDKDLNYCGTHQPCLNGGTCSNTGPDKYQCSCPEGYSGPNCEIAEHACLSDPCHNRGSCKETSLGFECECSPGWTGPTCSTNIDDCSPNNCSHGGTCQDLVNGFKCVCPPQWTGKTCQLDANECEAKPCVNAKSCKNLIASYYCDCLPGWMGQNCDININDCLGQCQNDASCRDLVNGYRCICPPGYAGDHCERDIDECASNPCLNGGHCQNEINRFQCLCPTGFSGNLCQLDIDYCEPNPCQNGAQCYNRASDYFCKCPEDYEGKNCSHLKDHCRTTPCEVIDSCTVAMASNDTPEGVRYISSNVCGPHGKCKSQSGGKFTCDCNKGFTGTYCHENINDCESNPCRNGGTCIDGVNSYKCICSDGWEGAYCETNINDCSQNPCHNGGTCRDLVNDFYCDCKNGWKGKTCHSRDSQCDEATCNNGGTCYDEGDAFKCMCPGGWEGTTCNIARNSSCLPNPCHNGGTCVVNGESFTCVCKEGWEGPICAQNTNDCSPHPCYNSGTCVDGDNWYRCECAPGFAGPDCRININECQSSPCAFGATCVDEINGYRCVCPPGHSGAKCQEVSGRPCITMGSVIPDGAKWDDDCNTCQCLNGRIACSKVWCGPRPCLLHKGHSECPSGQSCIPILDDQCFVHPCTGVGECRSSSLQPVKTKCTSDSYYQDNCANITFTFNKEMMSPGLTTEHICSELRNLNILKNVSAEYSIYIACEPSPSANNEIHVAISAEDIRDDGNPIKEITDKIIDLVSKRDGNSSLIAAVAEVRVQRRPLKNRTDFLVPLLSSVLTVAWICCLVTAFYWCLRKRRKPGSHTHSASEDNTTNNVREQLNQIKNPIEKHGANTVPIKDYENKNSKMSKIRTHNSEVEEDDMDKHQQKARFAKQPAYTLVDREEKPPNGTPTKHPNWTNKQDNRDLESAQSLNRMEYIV
UniProt P11142: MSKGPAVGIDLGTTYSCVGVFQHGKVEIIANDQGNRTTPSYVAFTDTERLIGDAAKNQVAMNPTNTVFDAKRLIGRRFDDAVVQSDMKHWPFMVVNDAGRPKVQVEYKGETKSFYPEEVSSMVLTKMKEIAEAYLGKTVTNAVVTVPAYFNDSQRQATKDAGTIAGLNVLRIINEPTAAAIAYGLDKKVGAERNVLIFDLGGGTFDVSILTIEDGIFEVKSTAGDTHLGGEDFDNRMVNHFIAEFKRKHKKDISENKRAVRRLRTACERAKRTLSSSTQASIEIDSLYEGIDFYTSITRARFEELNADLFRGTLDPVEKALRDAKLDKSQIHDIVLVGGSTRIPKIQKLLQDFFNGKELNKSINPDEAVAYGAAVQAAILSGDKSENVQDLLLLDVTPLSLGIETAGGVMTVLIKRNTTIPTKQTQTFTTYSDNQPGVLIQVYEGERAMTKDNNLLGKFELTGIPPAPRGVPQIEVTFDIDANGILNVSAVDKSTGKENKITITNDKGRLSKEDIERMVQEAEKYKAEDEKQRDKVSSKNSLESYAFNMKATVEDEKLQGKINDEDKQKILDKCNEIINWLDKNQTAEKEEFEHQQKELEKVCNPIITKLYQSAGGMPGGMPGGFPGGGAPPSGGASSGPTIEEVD
UniProt P07355: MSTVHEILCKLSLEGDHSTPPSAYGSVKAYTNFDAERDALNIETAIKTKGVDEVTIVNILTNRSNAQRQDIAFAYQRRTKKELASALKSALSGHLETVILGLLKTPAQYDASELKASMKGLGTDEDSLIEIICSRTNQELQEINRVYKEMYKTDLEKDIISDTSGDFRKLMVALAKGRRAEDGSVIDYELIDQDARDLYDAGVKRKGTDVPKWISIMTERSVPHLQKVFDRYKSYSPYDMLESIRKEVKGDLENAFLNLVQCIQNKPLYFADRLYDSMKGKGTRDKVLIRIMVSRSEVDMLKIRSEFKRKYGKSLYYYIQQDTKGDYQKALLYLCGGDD

Assay [1] deals with JICD1-HA-FLAG (JAG1 intracellular domain) (UniProt P78504). The experiment in a line: co-IP; IP against HA from LN18 JICD1-HA-FLAG cells with or without ANXA2 knockdown; blots for HSC70 and HSP90.
Assay [2] shares this target. The experiment in a line: proximity ligation; Duolink PLA against HA and ANXA2 in LN18 JICD1-HA-FLAG cells.

On to “HSPA8 (HSC70) (from UniProt P11142 1-646)”, for which the binding result in assay [1] is “binds”.
Take “Annexin A2 (ANXA2), endogenous (from UniProt P07355 1-339)”: in assay [2], the binding entry was “binds”.

(Values after article PMC10573421.)
